Laboratory results published in the supplement of paper PMC10849652.
The other results are listed elsewhere or left out.

Chains of the proteins cited; added tags and fusions are not shown. Lines headed by an entry give the natural chain unless they say otherwise; changes in a name come on top.
UniProt P35244: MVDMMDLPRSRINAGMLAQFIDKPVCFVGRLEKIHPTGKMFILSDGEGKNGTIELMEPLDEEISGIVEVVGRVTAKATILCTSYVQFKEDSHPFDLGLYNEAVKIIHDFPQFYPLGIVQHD
UniProt Q15287: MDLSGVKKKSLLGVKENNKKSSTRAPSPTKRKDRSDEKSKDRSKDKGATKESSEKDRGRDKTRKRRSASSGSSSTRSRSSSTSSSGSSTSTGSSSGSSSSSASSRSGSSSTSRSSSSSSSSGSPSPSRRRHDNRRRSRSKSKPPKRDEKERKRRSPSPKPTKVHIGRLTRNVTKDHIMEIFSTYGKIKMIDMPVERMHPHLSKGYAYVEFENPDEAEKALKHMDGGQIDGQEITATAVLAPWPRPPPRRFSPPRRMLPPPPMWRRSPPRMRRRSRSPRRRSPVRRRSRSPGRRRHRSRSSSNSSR
UniProt Q9UBF6, whole entry, looked up: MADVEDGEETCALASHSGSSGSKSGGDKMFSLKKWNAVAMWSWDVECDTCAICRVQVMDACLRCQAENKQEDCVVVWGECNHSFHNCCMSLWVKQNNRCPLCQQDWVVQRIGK
UniProt Q9H4A4: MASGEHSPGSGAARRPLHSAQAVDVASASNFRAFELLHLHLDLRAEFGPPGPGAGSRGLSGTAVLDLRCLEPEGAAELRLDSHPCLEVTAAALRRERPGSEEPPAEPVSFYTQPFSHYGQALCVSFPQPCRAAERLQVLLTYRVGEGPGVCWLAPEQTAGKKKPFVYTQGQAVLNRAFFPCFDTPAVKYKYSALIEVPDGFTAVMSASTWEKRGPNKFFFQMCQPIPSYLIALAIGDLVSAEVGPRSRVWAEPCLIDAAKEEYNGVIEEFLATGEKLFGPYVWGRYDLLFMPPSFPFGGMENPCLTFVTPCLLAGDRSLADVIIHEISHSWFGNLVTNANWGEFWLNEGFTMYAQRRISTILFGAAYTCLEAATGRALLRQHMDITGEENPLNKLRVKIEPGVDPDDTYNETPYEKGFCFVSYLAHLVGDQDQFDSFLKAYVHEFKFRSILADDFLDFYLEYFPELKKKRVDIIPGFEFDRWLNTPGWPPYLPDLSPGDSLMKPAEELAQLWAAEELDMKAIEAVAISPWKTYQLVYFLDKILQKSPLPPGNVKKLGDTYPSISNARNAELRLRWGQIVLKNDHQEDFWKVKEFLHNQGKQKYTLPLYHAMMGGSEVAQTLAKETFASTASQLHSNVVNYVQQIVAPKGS
UniProt Q15418, whole entry, looked up: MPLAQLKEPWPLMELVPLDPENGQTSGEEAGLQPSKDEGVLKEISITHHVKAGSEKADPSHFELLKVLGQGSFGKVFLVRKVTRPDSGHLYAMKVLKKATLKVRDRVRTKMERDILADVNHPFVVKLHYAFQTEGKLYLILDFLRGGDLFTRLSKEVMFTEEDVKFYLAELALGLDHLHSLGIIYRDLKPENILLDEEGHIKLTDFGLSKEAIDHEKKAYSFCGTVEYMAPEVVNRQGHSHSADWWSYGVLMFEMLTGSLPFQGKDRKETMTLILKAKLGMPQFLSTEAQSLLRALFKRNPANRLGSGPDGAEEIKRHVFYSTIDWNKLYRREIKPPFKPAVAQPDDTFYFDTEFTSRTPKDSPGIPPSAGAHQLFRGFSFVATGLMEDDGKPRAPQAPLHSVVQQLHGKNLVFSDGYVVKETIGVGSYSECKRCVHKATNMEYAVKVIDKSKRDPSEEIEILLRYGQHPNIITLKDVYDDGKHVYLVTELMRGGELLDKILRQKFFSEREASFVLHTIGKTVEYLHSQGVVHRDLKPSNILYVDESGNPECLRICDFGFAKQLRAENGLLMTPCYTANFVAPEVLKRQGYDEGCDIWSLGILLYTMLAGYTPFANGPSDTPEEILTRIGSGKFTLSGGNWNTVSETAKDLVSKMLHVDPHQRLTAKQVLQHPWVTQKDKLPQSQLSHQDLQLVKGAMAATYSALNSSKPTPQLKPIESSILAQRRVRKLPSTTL
UniProt Q9HB90, whole entry, looked up: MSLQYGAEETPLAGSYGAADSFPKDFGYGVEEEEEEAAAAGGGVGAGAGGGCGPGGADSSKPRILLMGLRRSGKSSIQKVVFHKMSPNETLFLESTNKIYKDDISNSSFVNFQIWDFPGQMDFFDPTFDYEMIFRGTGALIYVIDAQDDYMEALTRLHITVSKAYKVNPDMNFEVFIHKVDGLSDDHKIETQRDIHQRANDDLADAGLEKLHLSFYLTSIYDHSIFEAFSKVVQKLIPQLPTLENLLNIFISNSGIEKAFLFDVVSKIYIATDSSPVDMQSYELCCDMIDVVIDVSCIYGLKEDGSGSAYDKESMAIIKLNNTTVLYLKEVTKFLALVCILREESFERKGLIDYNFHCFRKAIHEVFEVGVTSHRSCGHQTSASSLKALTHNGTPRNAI
UniProt P51812, whole entry, looked up: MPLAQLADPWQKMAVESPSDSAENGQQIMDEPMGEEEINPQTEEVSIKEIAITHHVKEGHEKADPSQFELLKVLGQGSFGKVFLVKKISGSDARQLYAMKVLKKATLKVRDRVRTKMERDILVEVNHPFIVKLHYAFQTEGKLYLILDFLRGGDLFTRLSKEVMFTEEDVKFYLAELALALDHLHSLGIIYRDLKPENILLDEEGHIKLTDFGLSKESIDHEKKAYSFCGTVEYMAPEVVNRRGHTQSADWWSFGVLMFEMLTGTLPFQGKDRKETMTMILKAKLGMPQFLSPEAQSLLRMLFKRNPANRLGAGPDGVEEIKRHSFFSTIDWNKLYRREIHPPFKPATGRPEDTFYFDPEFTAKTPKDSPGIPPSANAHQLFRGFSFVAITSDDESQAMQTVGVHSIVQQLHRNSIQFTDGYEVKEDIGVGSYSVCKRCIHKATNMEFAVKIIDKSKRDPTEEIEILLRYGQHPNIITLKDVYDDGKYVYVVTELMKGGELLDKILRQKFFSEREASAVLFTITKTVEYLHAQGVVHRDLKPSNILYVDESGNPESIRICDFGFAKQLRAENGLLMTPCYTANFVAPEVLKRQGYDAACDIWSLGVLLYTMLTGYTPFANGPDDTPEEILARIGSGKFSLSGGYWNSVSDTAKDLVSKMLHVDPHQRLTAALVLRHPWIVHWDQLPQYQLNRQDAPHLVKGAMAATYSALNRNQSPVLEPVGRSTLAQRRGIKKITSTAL
UniProt O95059: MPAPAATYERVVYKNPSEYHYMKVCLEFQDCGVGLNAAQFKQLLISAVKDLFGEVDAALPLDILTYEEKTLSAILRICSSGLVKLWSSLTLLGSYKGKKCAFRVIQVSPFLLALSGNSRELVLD
UniProt P49247: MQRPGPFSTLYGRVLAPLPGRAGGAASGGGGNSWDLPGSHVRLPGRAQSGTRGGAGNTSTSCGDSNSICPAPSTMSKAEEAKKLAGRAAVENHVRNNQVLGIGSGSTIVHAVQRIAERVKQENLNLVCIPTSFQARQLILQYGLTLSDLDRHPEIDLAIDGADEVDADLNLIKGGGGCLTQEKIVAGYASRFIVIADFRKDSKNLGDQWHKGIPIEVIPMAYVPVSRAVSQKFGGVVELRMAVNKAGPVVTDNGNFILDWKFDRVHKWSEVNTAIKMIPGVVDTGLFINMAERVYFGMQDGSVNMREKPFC
UniProt Q8N122, whole entry, looked up: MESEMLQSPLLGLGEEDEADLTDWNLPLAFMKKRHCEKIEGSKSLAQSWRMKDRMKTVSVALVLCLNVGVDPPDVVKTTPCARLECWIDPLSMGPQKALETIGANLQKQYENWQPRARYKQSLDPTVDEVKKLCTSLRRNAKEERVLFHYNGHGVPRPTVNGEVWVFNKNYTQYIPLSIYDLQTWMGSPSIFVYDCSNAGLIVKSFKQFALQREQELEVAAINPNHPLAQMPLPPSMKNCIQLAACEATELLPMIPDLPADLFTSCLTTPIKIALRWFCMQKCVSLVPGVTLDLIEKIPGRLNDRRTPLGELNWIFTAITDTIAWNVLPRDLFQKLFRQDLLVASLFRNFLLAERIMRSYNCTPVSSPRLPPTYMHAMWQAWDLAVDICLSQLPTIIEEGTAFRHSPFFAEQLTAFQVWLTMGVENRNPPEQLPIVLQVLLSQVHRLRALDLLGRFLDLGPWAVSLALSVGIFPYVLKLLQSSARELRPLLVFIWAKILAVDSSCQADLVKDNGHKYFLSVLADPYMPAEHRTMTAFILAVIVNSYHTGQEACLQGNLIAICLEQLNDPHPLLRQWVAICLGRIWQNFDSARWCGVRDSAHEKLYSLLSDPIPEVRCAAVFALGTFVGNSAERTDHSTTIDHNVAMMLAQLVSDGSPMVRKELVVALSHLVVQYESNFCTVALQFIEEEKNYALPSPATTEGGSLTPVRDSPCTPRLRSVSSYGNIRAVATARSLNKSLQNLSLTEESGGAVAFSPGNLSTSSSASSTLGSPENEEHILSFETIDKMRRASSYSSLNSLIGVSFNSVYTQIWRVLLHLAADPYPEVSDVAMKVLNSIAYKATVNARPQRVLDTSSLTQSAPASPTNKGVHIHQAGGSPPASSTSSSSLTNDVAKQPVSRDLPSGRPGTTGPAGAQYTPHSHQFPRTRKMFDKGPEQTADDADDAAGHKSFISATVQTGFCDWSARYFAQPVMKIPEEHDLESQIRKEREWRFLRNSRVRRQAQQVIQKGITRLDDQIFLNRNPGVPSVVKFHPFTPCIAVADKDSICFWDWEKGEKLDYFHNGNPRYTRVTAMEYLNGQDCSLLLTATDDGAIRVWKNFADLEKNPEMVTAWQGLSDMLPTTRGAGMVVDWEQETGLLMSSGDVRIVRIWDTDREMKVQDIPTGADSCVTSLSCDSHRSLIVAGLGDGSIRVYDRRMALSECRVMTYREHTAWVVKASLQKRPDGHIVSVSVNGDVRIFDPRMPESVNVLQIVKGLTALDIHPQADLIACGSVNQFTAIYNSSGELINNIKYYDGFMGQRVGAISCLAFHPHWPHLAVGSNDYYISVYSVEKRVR
UniProt P62070: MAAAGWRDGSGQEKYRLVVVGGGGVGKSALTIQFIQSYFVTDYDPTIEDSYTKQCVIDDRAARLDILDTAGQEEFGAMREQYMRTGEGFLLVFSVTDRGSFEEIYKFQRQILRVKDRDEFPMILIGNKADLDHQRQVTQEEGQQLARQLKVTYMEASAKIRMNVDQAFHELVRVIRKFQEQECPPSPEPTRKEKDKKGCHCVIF
UniProt O75116: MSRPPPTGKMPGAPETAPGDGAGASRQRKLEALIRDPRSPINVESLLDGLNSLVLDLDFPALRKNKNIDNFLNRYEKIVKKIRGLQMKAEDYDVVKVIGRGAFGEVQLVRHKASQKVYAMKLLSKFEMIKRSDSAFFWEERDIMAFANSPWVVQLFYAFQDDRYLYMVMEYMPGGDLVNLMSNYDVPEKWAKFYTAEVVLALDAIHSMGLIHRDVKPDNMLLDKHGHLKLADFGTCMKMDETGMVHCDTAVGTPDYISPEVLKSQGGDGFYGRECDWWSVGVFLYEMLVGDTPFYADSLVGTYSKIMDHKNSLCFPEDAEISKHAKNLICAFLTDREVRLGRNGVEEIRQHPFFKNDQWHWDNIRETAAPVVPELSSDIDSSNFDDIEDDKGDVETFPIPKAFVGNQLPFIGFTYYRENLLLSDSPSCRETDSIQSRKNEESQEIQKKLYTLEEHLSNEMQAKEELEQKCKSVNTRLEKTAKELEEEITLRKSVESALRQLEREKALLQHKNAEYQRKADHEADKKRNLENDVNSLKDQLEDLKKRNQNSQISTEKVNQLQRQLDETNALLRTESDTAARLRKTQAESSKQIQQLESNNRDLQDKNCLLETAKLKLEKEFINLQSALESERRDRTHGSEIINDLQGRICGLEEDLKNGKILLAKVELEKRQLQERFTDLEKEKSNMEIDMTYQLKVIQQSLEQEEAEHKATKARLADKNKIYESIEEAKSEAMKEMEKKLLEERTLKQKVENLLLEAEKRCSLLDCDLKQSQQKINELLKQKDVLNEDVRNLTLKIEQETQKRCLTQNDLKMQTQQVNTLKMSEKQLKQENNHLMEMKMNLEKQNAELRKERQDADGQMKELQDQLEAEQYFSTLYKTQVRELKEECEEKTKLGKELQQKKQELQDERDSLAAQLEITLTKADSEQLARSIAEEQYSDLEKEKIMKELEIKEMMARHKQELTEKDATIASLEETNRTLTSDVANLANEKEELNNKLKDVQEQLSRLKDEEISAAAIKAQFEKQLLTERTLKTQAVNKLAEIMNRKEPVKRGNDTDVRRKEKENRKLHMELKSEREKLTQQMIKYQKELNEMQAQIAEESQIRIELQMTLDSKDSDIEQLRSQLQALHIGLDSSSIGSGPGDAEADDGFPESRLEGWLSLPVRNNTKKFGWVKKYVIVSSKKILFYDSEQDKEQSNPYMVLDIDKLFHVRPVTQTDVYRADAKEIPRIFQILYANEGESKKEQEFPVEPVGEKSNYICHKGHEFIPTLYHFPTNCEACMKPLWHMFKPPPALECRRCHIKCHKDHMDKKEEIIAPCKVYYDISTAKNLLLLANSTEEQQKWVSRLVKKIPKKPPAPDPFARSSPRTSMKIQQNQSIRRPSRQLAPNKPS

Legend:
Assay in all cases: log2 fold change, soluble protein after heating vs DMSO (PISA); higher = thermal stabilisation; K562 cells, 10 uM, 30 min; active = over 0.2 and 3.5 SD of the protein, either way, in both replicates (recomputed)
[1] = compound: CS(=O)(=O)c1ccc(-c2cnc(N)c(C(=O)Nc3ccccc3)n2)cc1
Summary of the method: (§1)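 K562 cells at 2×10^6 cells/mL were treated for 30 min with 10 μM compound, and aliquots were heated for 3 min over 48°C-58°C before pooling. Extraction used PBS with 0.5% NP-40 at 4°C, and soluble protein was the supernatant after 21,000xg for 90 min, measured by TMTpro 16plex LC-MS/MS with channel sums equalised. Thermal stability values, relative to control samples and from duplicates, are log2 fold changes.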

crizotinib = compound: C[C@@H](Oc1cc(-c2cnn(C3CCNCC3)c2)cnc1N)c1c(Cl)ccc(F)c1Cl [crizotinib]
Summary of the method: as §1

[2] = compound: C[C@@H]1COCCN1C2=NC(=NC(=C2)C3(CC3)S(=O)(=O)C)C4=C5C=CNC5=CC=C4
Summary of the method: as §1

[3] = compound: C[C@H](C1=CC=C(C=C1)C(=O)NC2=C3C=CNC3=NC=C2)N
Summary of the method: as §1

gandotinib = compound: Cc1cc(Nc2cc(CN3CCOCC3)c3nc(C)c(Cc4ccc(Cl)cc4F)n3n2)n[nH]1 [gandotinib]
Summary of the method: as §1

[4] = compound: Cc1cc(SCc2sc(-c3ccc(C(F)(F)F)cc3)nc2C)ccc1OCC(=O)O
Summary of the method: as §1

doramapimod = compound: Cc1ccc(-n2nc(C(C)(C)C)cc2NC(=O)Nc2ccc(OCCN3CCOCC3)c3ccccc23)cc1 [doramapimod]
Summary of the method: as §1

ispinesib = compound: Cc1ccc(C(=O)N(CCCN)[C@@H](c2nc3cc(Cl)ccc3c(=O)n2Cc2ccccc2)C(C)C)cc1 [ispinesib]
Summary of the method: as §1

duvelisib = compound: C[C@H](Nc1ncnc2nc[nH]c12)c1cc2cccc(Cl)c2c(=O)n1-c1ccccc1 [duvelisib]
Summary of the method: as §1

tozasertib = compound: Cc1cc(Nc2cc(N3CCN(C)CC3)nc(Sc3ccc(NC(=O)C4CC4)cc3)n2)n[nH]1 [tozasertib]
Summary of the method: as §1

Measured: log2 fold change

RPS3A (UniProt P61247)
inactive: [1] -0.064 | crizotinib 0.022 | [2] -0.182 | [3] 0.196 | gandotinib 0.175 | [4] 0.029 | doramapimod 0.044 | ispinesib -0.072

RPL36 (UniProt Q9Y3U8)
inactive: [1] -0.151 | crizotinib 0.011 | [2] -1.09 | [3] 0.6 | duvelisib -0.269 | gandotinib 0.45 | tozasertib 0.031 | [4] 0.059 | doramapimod 0.273 | ispinesib -0.281

RPS3 (UniProt P23396)
inactive: [1] -0.07 | crizotinib 0.025 | [2] -0.258 | [3] 0.203 | gandotinib 0.134 | [4] 0.045 | doramapimod 0.077 | ispinesib -0.127

RPA3 (UniProt P35244)
inactive: [1] -0.044 | crizotinib 0.042 | [2] -0.162 | [3] -0.098 | gandotinib 0.11 | [4] 0.003 | doramapimod -0.054 | ispinesib 0.109

RPL38 (UniProt P63173)
inactive: [1] -0.039 | crizotinib -0.069 | [3] 0.077 | gandotinib 0.144 | [4] -0.008 | doramapimod 0.017 | ispinesib -0.093
active: [2] -0.258

RNPS1 (UniProt Q15287)
inactive: [1] 0.018 | crizotinib -0.109 | [2] 0.114 | [3] -0.019 | gandotinib 0.089 | [4] -0.028 | doramapimod -0.104 | ispinesib 0.042

RPS29 (UniProt P62273)
inactive: [1] -0.043 | crizotinib 0.039 | [2] -0.191 | [3] 0.148 | duvelisib -0.175 | gandotinib 0.285 | tozasertib 0.032 | [4] 0 | doramapimod -0.172 | ispinesib -0.293

RPS16 (UniProt P62249)
inactive: [1] -0.107 | crizotinib 0 | [2] -0.353 | [3] 0.214 | gandotinib 0.172 | [4] -0.023 | doramapimod 0.055 | ispinesib -0.088

RPS24 isoform 4 (UniProt P62847)
inactive: [1] -0.005 | crizotinib 0.051 | [2] -0.397 | [3] 0.293 | duvelisib -0.153 | gandotinib 0.232 | tozasertib 0.016 | [4] 0.002 | doramapimod 0.165 | ispinesib -0.185

RNF7 (UniProt Q9UBF6)
inactive: [1] -0.011 | crizotinib 0.113 | [2] 0.033 | [3] 0.016 | duvelisib 0.049 | gandotinib 0.027 | tozasertib -0.06 | [4] -0.051 | doramapimod 0.025 | ispinesib 0.027

RNPEP (UniProt Q9H4A4)
inactive: [1] 0.037 | crizotinib -0.081 | [2] 0.081 | [3] -0.034 | gandotinib -0.053 | [4] 0.083 | doramapimod -0.031 | ispinesib -0.086

RPS9 (UniProt P46781)
inactive: [1] -0.075 | crizotinib 0.02 | [2] -0.401 | [3] 0.278 | gandotinib 0.188 | [4] 0.024 | doramapimod 0.174 | ispinesib -0.04

RPS6KA1 isoform 2 (UniProt Q15418)
inactive: [1] 0 | crizotinib -0.259 | [2] 0.138 | [3] -0.066 | gandotinib -0.199 | [4] 0.066 | doramapimod -0.026 | ispinesib 0.021

RPS18 (UniProt P62269)
inactive: [1] -0.022 | crizotinib 0.033 | [2] -0.244 | [3] 0.222 | gandotinib 0.129 | [4] -0.002 | doramapimod 0.105 | ispinesib -0.074

RPLP0 (UniProt P05388)
inactive: [1] -0.163 | crizotinib 0.082 | [2] -1.04 | [3] 0.581 | duvelisib -0.293 | gandotinib 0.395 | tozasertib 0.019 | [4] 0.048 | doramapimod 0.382 | ispinesib -0.257

RPL30 (UniProt P62888)
inactive: [1] -0.217 | crizotinib 0.064 | [2] -1.11 | [3] 0.581 | duvelisib -0.236 | gandotinib 0.428 | tozasertib 0.011 | [4] 0.142 | doramapimod 0.324 | ispinesib -0.262

RRAGC (UniProt Q9HB90)
inactive: [1] 0.016 | crizotinib -0.262 | [2] 0.008 | [3] -0.027 | gandotinib 0 | [4] -0.039 | doramapimod 0.019 | ispinesib -0.153

RPS4X (UniProt P62701)
inactive: [1] -0.027 | crizotinib 0.021 | [2] -0.378 | [3] 0.333 | gandotinib 0.264 | [4] -0.023 | doramapimod 0.18 | ispinesib -0.141

RPS6KA3 (UniProt P51812)
inactive: [1] 0.023 | crizotinib -0.107 | [2] 0.024 | [3] -0.177 | gandotinib -0.019 | [4] 0.032 | doramapimod -0.066 | ispinesib -0.017

RPS14 (UniProt P62263)
inactive: [1] -0.049 | crizotinib -0.075 | [2] -0.22 | [3] 0.183 | gandotinib 0.056 | [4] 0.023 | doramapimod 0.071 | ispinesib 0.002

RPP14 (UniProt O95059)
inactive: [1] -0.048 | crizotinib -0.046 | [2] 0.019 | [3] -0.076 | gandotinib -0.119 | [4] -0.054 | doramapimod 0.06 | ispinesib 0.03

RPIA (UniProt P49247)
inactive: [1] -0.023 | crizotinib 0.039 | [2] 0.005 | [3] -0.077 | duvelisib 0.065 | gandotinib 0.006 | tozasertib -0.012 | [4] -0.014 | doramapimod 0.025 | ispinesib 0.019

RPS20 isoform 2 (UniProt P60866)
inactive: [1] -0.062 | crizotinib 0.013 | [2] -0.176 | [3] 0.174 | gandotinib 0.129 | [4] 0.004 | doramapimod 0.048 | ispinesib -0.066

Taken from the listing (5 entries):
RPS24 isoform 4 (UniProt P62847)
inactive: [1] -0.005 | crizotinib 0.051 | [2] -0.397 | [3] 0.293 | duvelisib -0.153 | gandotinib 0.232 | tozasertib 0.016 | [4] 0.002 | doramapimod 0.165 | ispinesib -0.185

RNF7 (UniProt Q9UBF6)
inactive: [1] -0.011 | crizotinib 0.113 | [2] 0.033 | [3] 0.016 | duvelisib 0.049 | gandotinib 0.027 | tozasertib -0.06 | [4] -0.051 | doramapimod 0.025 | ispinesib 0.027

RNPEP (UniProt Q9H4A4)
inactive: [1] 0.037 | crizotinib -0.081 | [2] 0.081 | [3] -0.034 | gandotinib -0.053 | [4] 0.083 | doramapimod -0.031 | ispinesib -0.086

RPS9 (UniProt P46781)
inactive: [1] -0.075 | crizotinib 0.02 | [2] -0.401 | [3] 0.278 | gandotinib 0.188 | [4] 0.024 | doramapimod 0.174 | ispinesib -0.04

RPS6KA1 isoform 2 (UniProt Q15418)
inactive: [1] 0 | crizotinib -0.259 | [2] 0.138 | [3] -0.066 | gandotinib -0.199 | [4] 0.066 | doramapimod -0.026 | ispinesib 0.021

Carrying on.

RPTOR (UniProt Q8N122)
inactive: [1] 0.012 | crizotinib -0.188 | [2] -0.031 | [3] 0.033 | gandotinib -0.115 | [4] 0.01 | doramapimod -0.009 | ispinesib -0.114

RPS12 (UniProt P25398)
inactive: [1] -0.041 | crizotinib 0.078 | [2] -0.098 | [3] 0.165 | gandotinib 0.124 | [4] -0.011 | doramapimod 0.012 | ispinesib 0.017

RPS19 (UniProt P39019)
inactive: [1] -0.12 | crizotinib 0.023 | [2] -0.309 | [3] 0.182 | gandotinib 0.201 | [4] 0.018 | doramapimod 0.05 | ispinesib -0.081

RPL10A (UniProt P62906)
inactive: [1] -0.023 | crizotinib 0.043 | [2] -1.05 | [3] 0.705 | duvelisib -0.362 | gandotinib 0.468 | tozasertib 0.043 | [4] 0.071 | doramapimod 0.422 | ispinesib -0.229

RPS5 (UniProt P46782)
inactive: [1] -0.081 | crizotinib 0 | [2] -0.255 | [3] 0.176 | gandotinib 0.108 | [4] 0.017 | doramapimod 0.069 | ispinesib -0.073

RRAS2 isoform 4 (UniProt P62070)
inactive: [1] 0.044 | crizotinib 0.162 | [2] -0.001 | [3] -0.152 | gandotinib -0.016 | [4] -0.042 | doramapimod 0.012 | ispinesib -0.019

RPAP2 (UniProt Q8IXW5)
inactive: [1] 0.081 | crizotinib -0.197 | [2] -0.037 | [3] 0.353 | gandotinib -0.07 | tozasertib 0.088 | doramapimod 0.192 | ispinesib -0.248

ROCK2 (UniProt O75116)
inactive: [1] 0.033 | crizotinib -0.041 | [2] 0.026 | gandotinib -0.049 | [4] 0.004 | doramapimod 0.007 | ispinesib -0.049
active: [3] 0.392

RPL10 (UniProt F8W7C6)
inactive: [1] -0.102 | [2] -0.182 | [3] 0.357 | gandotinib -0.008 | tozasertib -0.028
